Measurements reported in article PMC10318462.
Residue numbers refer to the chain shown, from its start. Construct, isoform or probe ends are uncertain for at least one entry. For some assays here: Negatives hold for the conditions tested. For some assays here: Tags and fusion partners may be left off the protein sequences shown. For some assays here: Weaker means in comparison with the reference protein, sequence or condition of that experiment.

Key:
Experiment in all cases: EMSA
[1] = target: Apo-Fur (no [2Fe-2S]) (Escherichia coli) (UniProt P0A9A9); details: no cluster, very little or no binding up to 2.0 uM; EMSA: 22 mM Tris pH 8.0, 7% glycerol, 4.1 mM MgCl2, 44 mM KCl, 55 mM NaCl, room temp 10 min, 0.7 nM DNA; recombinant protein; label: 5'-biotin on strand 1 (primer Fur-A)
[2] = target: T1, Fur-C93A (Escherichia coli) (UniProt P0A9A9); details: no cluster, data not shown; EMSA: 22 mM Tris pH 8.0, 7% glycerol, 4.1 mM MgCl2, 44 mM KCl, 55 mM NaCl, room temp 10 min, 0.7 nM DNA; recombinant protein; label: 5'-biotin on strand 1 (primer Fur-A)
T1 sequence (looked up, limits assumed): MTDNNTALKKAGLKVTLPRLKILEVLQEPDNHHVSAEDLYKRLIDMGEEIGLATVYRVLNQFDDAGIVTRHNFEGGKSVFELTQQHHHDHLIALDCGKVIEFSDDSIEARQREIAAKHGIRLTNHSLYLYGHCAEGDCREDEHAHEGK

[3] = target: T2, Fur-C96A (Escherichia coli) (UniProt P0A9A9); details: no cluster, data not shown; EMSA: 22 mM Tris pH 8.0, 7% glycerol, 4.1 mM MgCl2, 44 mM KCl, 55 mM NaCl, room temp 10 min, 0.7 nM DNA; recombinant protein; label: 5'-biotin on strand 1 (primer Fur-A)
T2 sequence (looked up, limits assumed): T1 sequence (looked up, limits assumed) with A93C, C96A

[4] = target: T3, Red-Fur ([2Fe-2S]-bound Fur, ~36% occupancy) (Escherichia coli) (UniProt P0A9A9); details: [2Fe-2S], 1.0 uM completely shifts 0.7 nM DNA, EMSA: 22 mM Tris pH 8.0, 7% glycerol, 4.1 mM MgCl2, 44 mM KCl, 55 mM NaCl, room temp 10 min, recombinant protein, label: 5'-biotin on strand 1 (primer Fur-A)
T3 sequence (looked up, limits assumed): T1 sequence (looked up, limits assumed) with A93C

[5] = target: T4, Red-Fur after removal of [2Fe-2S] (Escherichia coli) (UniProt P0A9A9); details: cluster removed, up to 2.0 uM; EMSA: 22 mM Tris pH 8.0, 7% glycerol, 4.1 mM MgCl2, 44 mM KCl, 55 mM NaCl, room temp 10 min, 0.7 nM DNA; recombinant protein; label: 5'-biotin on strand 1 (primer Fur-A)
T4 sequence (looked up, limits assumed): T1 sequence (looked up, limits assumed) with A93C

“TTTAGGCGTGGCAATTCTATAATGATACGCATTATCTCAAGAGCAAATTCTGTCACTTCTTCTAATGAAGTGAACCGCTTAGTAACAGGACAGATTCCGCATGACTGATA (double strand) [fur promoter fragment with Fur-box (110 bp)]”: no binding [1]; binds more weakly [2]; binds more weakly [3]. “TTTAGGCGTGGCAATTCTATAATGATACGCATTATCTCAAGAGCAAATTCTGTCACTTCTTCTAATGAAGTGAACCGCTTAGTAACAGGACAGATTCCGCATGACTGATA (double strand) [fur promoter fragment with Fur-box (110 bp)]”: binds [4]; no binding [5].
